The text below walks through data of article PMC4895691, “Suppressor of IKKɛ is an essential negative regulator of pathological cardiac hypertrophy” (Nature Communications, 2016).

The target of this test is T1, Tbk1, endogenous in neonatal rat cardiomyocytes (rat (endogenous in neonatal rat cardiomyocytes)) (UniProt D4A7D3).
T1 sequence: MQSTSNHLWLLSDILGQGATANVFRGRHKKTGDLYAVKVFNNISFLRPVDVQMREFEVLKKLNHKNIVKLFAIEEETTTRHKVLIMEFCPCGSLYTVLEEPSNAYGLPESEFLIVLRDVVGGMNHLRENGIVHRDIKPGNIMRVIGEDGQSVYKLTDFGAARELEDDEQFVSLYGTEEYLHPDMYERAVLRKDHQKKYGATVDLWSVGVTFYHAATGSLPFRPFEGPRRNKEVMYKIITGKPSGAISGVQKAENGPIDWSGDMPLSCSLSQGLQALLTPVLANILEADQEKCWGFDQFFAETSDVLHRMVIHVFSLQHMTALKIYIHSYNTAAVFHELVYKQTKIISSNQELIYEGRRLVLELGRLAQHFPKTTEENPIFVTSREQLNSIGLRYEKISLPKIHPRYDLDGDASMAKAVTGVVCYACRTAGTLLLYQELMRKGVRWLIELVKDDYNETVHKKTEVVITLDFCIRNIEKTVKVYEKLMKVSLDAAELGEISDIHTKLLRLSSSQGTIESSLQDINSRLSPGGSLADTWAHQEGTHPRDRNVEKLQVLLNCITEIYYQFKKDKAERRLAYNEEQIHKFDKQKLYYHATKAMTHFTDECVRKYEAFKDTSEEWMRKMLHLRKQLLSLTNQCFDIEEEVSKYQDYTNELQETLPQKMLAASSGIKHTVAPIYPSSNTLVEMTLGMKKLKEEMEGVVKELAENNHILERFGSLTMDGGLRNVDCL
The experiment in a line: co-IP; cardiomyocytes with or without upregulation of Sike, with or without Ang II challenge; Tbk1 with Traf3.

No constants are given. Whether binding was seen depends on the method and setting. In cells and extracts the contact can be indirect. Binding can be weak; no strength is given.

In the case of “Traf3 in cardiomyocytes (rat (in neonatal rat cardiomyocytes))”, the binding entry was “binds”.
